Our source for the survivor count and T/C values is PubChem BioAssay AID248 (DTP/NCI, 2004).

The test system of this assay is L1210 leukemia ip in BDF1 mice, survival T/C. The assay is described as follows: NCI In Vivo Anticancer Drug Screen. Data for tumor model L1210 Leukemia (intraperitoneal) in B6D2F1 (BDF1) mice. Conditions: T/C endpoint: mean survival time, higher T/C = longer survival.
The mark [1] stands for this setting: dose: 200.0 mg/kg/injection, schedule: Q01DX001 (ip), vehicle: saline.
Setting [2] is: dose: 400.0 mg/kg/injection, schedule: Q01DX001 (ip), vehicle: saline.
Where [3] appears, read: dose: 40.0 mg/kg/injection, schedule: Q01DX001 (ip), vehicle: saline.
The mark [4] stands for this setting: dose: 80.0 mg/kg/injection, schedule: Q01DX001 (ip), vehicle: saline.
[5] abbreviates: dose: 132.0 mg/kg/injection, schedule: Q01DX009 (ip), vehicle: saline.
The mark [6] stands for this setting: dose: 200.0 mg/kg/injection, schedule: Q01DX009 (ip), vehicle: saline.

The list shows only some results of the screen, not a fair sample: it is rich in T/C values a quarter to a half above the control, in often repeated tests (any T/C) and in doses without a T/C. Further doses and runs are listed elsewhere. T/C: endpoint of the treated group in % of that of the vehicle group. Some entries give survivors of the animals treated and no T/C: the source holds a T/C of zero for them, seemingly a mark for toxic or unscored doses. Some survivor counts are full or nearly so, which does not show that the dose was tolerated: the source hardly ever lists a survival T/C far under the control, and the zero likely stands for such cases as well. Survivors were counted at the toxicity check, usually on the fifth day, unless a day is given; later deaths do not show. Schedule codes are those of the source, taken here to give the interval after Q, in days (D) or hours (H), and the number of doses after X. Some schedule codes hold Z or #, which are not explained here. Some entries were tested several times; the values are given in rising order. For survival time, the PubChem record calls one and a half times the control and up active, and a quarter to a half above the control has no call in these data; cut-offs in other NCI protocols can differ. Some T/C values carry the count of animals alive at the toxicity check (mostly the fifth day); without a count, all were alive then.

As for `Cc1cc[n+](CCCCCCCCCCO)cc1`, the survivor count by setting is: (dose: 62.5 mg/kg/injection, schedule: Q01DX001 (ip), vehicle: saline) 0 of 6; (dose: 125.0 mg/kg/injection, schedule: Q01DX001 (ip), vehicle: saline) 0 of 6; (dose: 250.0 mg/kg/injection, schedule: Q01DX001 (ip), vehicle: saline) 0 of 6.

In the case of `CC(=O)N1CCc2nc3ccccc3cc21`, under “dose: 300.0 mg/kg/injection, schedule: Q01DX001 (ip), vehicle: saline”, the survivor count is recorded as 0 of 6.

Turning to `CCOC(=O)CCC1(CN2c3ccccc3Sc3ccccc32)CCN(C)C1` (stereo not given), the survivor count is given as 4 of 6 (dose: 150.0 mg/kg/injection, schedule: Q04DX003 (ip), vehicle: saline); 1 of 6 under setting [1]; 3 of 6 (dose: 225.0 mg/kg/injection, schedule: Q04DX003 (ip), vehicle: saline); 0 of 6 (dose: 335.0 mg/kg/injection, schedule: Q04DX003 (ip), vehicle: saline); 0 of 6 under setting [2].

As to `CC(C)Oc1c(N(C)CCO)c2cc(Cl)ccc2oc1=O`, where the note is “dose: 400.0 mg/kg/injection, schedule: Q04DX003 (ip), vehicle: saline with Tween-80”, the survivor count was 6 of 6.

As to `CCCCc1ccc(C(=O)O)nc1.[Cu+2]`, the survivor count runs as follows: under setting [3], 2 of 6; under setting [4], 1 of 6.

`COC(=O)C1(N(C)C)c2ccccc2-c2ccccc21`: the survivor count (dose: 200.0 mg/kg/injection, schedule: Q01DX001 (ip), vehicle: carboxymethylcellulose (CMC)) is listed as 2 of 4 and the survivor count (dose: 400.0 mg/kg/injection, schedule: Q01DX001 (ip), vehicle: carboxymethylcellulose (CMC)) is 1 of 4.

In the case of `CC(C)c1cc2c(cc1O)C1(C)CCCC(C)(C(=O)O)C1CC2` (stereo not given), the survivor count (dose: 400.0 mg/kg/injection, schedule: Q01DX001 (ip), vehicle: acetone) is reported as 2 of 6.

Regarding `CCOCCOCCOCCCNCCCN1CC1`, the T/C runs as follows: (dose: 60.0 mg/kg/injection, schedule: Q01DX009 (ip), vehicle: saline) 128 and 138 % of control; (dose: 88.0 mg/kg/injection, schedule: Q01DX009 (ip), vehicle: saline) 138 % of control; (dose: 132.0 mg/kg/injection, schedule: Q01DX001 (ip), vehicle: saline) 134 % of control; under setting [5], 148 % of control; under setting [1], 130 % of control. Moreover, the survivor count was 5 of 6 under setting [5]; 5 of 6 under setting [6]; 0 of 6 and 1 of 3 (dose: 300.0 mg/kg/injection, schedule: Q01DX009 (ip), vehicle: saline).

Consider `COc1ccc([N+](=O)[O-])cc1NC(=O)c1ccc2c(c1)C(=O)OC2=O`, for which the survivor count is, setting by setting: (dose: 25.0 mg/kg/injection, schedule: Q01DX009 (ip), vehicle: gum acacia) 6 of 6; (dose: 100.0 mg/kg/injection, schedule: Q01DX009 (ip), vehicle: gum acacia) 6 of 6; (dose: 400.0 mg/kg/injection, schedule: Q01DX009 (ip), vehicle: gum acacia) 6 of 6.

As to `Cn1/c(=N/N=C(N)N)ccc2ccccc21`, the survivor count is, setting by setting: (dose: 420.0 mg/kg/injection, schedule: Q01DX Z (ip), vehicle: methylcellulose (MC)) 3 of 6; (dose: 500.0 mg/kg/injection, schedule: Q01DX Z (oral), vehicle: methylcellulose (MC)) 5 of 7; (dose: 600.0 mg/kg/injection, schedule: Q01DX Z (ip), vehicle: methylcellulose (MC)) 0 of 6; (dose: 625.0 mg/kg/injection, schedule: Q01DX Z (oral), vehicle: methylcellulose (MC)) 3 of 7.

For the compound `COc1ccc2c3c(c4cc(OC)c(OC)cc4c2c1)CN1CCC[C@H]1[C@@H]3O`, the survivor count runs as follows: (dose: 2.0 mg/kg/injection, schedule: Q01DX Z (ip), vehicle: water) 0 of 6; (dose: 3.0 mg/kg/injection, schedule: Q01DX Z (ip), vehicle: water) 0 of 6; (dose: 4.0 mg/kg/injection, schedule: Q01DX015 (ip), vehicle: water) 0 of 6; (dose: 4.6 mg/kg/injection, schedule: Q01DX Z (ip), vehicle: water) 0 of 6; (dose: 7.0 mg/kg/injection, schedule: Q01DX Z (ip), vehicle: water) 0 of 6; (dose: 9.0 mg/kg/injection, schedule: Q01DX015 (ip), vehicle: water) 6 of 6. The survivor count runs as follows: (dose: 10.0 mg/kg/injection, schedule: Q01DX Z (ip), vehicle: water) 0 of 6; (dose: 12.0 mg/kg/injection, schedule: Q01DX015 (ip), vehicle: water) 2 of 6; (dose: 15.0 mg/kg/injection, schedule: Q01DX Z (ip), vehicle: water) 0 of 6; (dose: 20.0 mg/kg/injection, schedule: Q01DX Z (ip), vehicle: water) 0 of 6. In addition, the T/C (dose: 4.0 mg/kg/injection, schedule: Q01DX015 (ip), vehicle: acid diluted with saline) is 126 % of control; the T/C (dose: 6.0 mg/kg/injection, schedule: Q01DX015 (ip), vehicle: acid diluted with saline) is 126 % of control; the T/C (dose: 6.0 mg/kg/injection, schedule: Q01DX015 (ip), vehicle: water) was 130 % of control.

For `CC(C)CNCc1ccc([N+](=O)[O-])cc1`, for the setting “dose: 300.0 mg/kg/injection, schedule: Q01DX001 (ip), vehicle: carboxymethylcellulose (CMC)”, the survivor count is 1 of 6.

Consider `[N-]=[N+]=C1C(c2ccccc2)=NC(c2nccc3ccccc23)=C1[N+](=O)[O-]`, for which the survivor count is reported as 3 of 6 under setting [3] and 1 of 6 under setting [4].

On to `COc1cc2c(cc1OC)[C@H]1CNC[C@H]1[C@@H](c1ccccc1)C2`, for which the survivor count (dose: 400.0 mg/kg/injection, schedule: Q04DX003 (ip), vehicle: saline) is 0 of 6.

Turning to `COc1cc(O)c2ncccc2c1O`, the survivor count by setting is: (dose: 50.0 mg/kg/injection, schedule: Q01DX001 (ip), vehicle: saline) 2 of 4; under setting [4], 0 of 6 and 1 of 6; (dose: 100.0 mg/kg/injection, schedule: Q01DX001 (ip), vehicle: saline) 0 of 4; (dose: 120.0 mg/kg/injection, schedule: Q01DX001 (ip), vehicle: saline) 0 of 6 and 1 of 6; under setting [1], 0 of 4; under setting [2], 0 of 4. Besides, the T/C under setting [4] is 133 % of control [3 of 4 alive].

On to `CC[CH2][Sn]([Br])([CH2]CC)[CH2]CC`, for which the survivor count (dose: 6.25 mg/kg/injection, schedule: Q01DX009 (ip), vehicle: saline) is reported as 0 of 3; the survivor count (dose: 25.0 mg/kg/injection, schedule: Q01DX009 (ip), vehicle: saline) was 0 of 3; the survivor count (dose: 50.0 mg/kg/injection, schedule: Q01DX009 (ip), vehicle: saline) is reported as 0 of 3; the survivor count (dose: 100.0 mg/kg/injection, schedule: Q01DX009 (ip), vehicle: saline) is 0 of 3 and 0 of 6; the survivor count under setting [6] is given as 0 of 6; the survivor count (dose: 400.0 mg/kg/injection, schedule: Q01DX009 (ip), vehicle: saline) is 0 of 6.
